Assay results: paper PMC8304285
No constants are given. Whether binding was seen depends on the method and setting. Binding can be weak; no strength is given.

Protein sequences, listed by entry. Tags and fused reporters are not part of them. Lines headed by an entry give the natural chain unless they say otherwise; changes in a name come on top.
UniProt Q8S4L4: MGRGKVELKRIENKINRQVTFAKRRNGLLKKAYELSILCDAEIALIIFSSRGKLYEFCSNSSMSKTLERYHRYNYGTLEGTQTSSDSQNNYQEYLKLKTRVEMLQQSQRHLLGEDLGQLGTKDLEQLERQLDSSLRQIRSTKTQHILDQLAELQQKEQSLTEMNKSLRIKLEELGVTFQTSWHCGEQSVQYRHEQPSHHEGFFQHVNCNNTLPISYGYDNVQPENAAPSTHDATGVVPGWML

Assays:
[1] = molecular target: TOMATO AGAMOUS-LIKE 1 (TAGL1) (tomato) (UniProt E9JUM2); assay: two-hybrid; yeast, HybriZAP-2.1 system; pAD-GAL4 fusion against pBD-GAL4-Cam fusion; growth on -LTH medium + 10 mM 3AT; room temperature and 30 °C, same results
[2] = molecular target: FRUITFULL 2 (FUL2) (tomato); assay: as above
[3] = molecular target: TOMATO AGAMOUS-LIKE 1 (TAGL1) (tomato) (UniProt E9JUM2); assay: two-hybrid; yeast, HybriZAP-2.1 system; pAD-GAL4 fusion against pBD-GAL4-Cam fusion; X-gal test; room temperature and 30 °C, same results
[4] = molecular target: FRUITFULL 2 (FUL2) (tomato); assay: as above
[5] = molecular target: TOMATO AGAMOUS-LIKE 1 (TAGL1) (tomato) (UniProt E9JUM2); assay: two-hybrid; yeast, HybriZAP-2.1 system; pAD-GAL4 fusion against pBD-GAL4-Cam fusion; growth on -LTA medium; room temperature and 30 °C, same results
[6] = molecular target: FRUITFULL 2 (FUL2) (tomato); assay: as above

binding [1]: binds
binding [2]: binds
binding [3]: binds
binding [4]: binds
binding [5]: binds
binding [6]: binds
Substance: RIN1 (MADS-domain RIPENING INHIBITOR, isoform RIN1) (from UniProt Q8S4L4 1-242)
